The other results are listed elsewhere or left out. Most values lie at the level of the controls, where differences are scatter.
Compound: CN[C@@H]1C[C@H]2O[C@@](C)([C@@H]1OC)n1c3ccccc3c3c4c(c5c6ccccc6n2c5c31)C(=O)NC4 [staurosporine]
Assay: log2 fold change of tryptic peptide abundance, ligand vs vehicle (limited proteolysis) (log2 ratio); higher = more trypsin-susceptible (destabilized)
Details: ligand concentration: 20 uM; sample: K562 cleared lysate; digestion: 4 min, 22 C (HT-PELSA RT4min, Orbitrap Astral)

Amino acid sequences for entries named in this document (tags omitted). A change or cut given only in a name is not applied to a line headed by its entry.
UniProt P47974: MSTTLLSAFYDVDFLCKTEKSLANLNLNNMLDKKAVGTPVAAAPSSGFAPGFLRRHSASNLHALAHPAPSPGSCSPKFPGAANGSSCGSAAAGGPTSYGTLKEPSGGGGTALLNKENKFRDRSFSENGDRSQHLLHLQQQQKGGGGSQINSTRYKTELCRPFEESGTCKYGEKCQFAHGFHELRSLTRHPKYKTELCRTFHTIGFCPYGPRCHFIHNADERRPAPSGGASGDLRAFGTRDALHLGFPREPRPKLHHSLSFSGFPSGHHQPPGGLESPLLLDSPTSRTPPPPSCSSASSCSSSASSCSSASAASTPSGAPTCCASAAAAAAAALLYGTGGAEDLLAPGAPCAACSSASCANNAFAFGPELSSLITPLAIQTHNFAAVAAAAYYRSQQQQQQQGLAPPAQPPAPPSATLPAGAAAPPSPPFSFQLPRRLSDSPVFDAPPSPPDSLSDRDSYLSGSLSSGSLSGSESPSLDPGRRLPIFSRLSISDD
UniProt P52732: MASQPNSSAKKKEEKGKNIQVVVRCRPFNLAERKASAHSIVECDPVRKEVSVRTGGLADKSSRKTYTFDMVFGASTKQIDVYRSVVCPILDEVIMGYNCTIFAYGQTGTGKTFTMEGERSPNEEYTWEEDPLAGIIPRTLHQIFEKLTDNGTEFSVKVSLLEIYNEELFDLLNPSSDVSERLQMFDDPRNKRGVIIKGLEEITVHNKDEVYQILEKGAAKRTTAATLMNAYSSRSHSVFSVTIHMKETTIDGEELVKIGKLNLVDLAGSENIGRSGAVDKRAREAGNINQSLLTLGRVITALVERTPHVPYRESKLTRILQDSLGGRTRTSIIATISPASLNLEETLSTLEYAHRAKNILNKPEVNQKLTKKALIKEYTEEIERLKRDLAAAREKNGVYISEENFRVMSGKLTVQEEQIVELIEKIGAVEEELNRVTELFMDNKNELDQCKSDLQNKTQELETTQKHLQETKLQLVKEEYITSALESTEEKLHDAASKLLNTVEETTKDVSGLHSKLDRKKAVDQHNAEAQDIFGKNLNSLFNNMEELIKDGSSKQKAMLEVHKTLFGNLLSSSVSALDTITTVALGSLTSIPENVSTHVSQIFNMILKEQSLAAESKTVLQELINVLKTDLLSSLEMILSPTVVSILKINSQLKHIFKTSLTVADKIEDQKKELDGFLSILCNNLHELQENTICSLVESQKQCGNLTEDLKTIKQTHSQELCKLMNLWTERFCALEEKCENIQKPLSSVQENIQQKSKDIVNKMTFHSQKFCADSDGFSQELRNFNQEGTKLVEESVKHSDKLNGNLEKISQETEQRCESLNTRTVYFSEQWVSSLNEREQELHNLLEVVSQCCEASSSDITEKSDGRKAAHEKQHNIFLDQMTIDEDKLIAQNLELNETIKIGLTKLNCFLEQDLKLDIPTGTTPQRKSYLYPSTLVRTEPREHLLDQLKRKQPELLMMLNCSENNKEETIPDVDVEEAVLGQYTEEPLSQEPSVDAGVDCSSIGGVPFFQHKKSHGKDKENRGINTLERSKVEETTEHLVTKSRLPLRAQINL
UniProt P52943: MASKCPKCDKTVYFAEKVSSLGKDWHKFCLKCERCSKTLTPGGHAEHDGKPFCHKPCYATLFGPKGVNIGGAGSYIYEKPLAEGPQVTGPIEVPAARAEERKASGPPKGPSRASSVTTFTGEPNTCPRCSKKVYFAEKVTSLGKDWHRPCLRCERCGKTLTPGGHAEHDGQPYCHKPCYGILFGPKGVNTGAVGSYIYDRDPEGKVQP
UniProt P49642: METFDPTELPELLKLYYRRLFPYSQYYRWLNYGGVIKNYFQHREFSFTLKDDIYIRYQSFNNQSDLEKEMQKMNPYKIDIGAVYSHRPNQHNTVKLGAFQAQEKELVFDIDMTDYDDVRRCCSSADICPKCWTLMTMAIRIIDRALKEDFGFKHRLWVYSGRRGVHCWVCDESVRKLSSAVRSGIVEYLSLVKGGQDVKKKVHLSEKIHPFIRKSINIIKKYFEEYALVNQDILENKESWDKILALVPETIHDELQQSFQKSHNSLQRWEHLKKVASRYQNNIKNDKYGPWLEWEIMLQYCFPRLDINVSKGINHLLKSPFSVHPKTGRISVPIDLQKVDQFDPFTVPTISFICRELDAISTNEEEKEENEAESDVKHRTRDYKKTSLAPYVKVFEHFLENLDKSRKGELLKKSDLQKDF
UniProt P49675, whole entry: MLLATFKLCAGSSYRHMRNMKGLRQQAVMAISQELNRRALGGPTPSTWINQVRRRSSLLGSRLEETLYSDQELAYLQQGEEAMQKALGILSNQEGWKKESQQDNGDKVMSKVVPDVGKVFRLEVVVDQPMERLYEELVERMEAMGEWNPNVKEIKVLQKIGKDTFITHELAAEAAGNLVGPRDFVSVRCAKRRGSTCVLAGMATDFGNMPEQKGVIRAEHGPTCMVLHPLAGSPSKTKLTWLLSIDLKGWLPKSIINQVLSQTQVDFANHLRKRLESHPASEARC
UniProt P49585: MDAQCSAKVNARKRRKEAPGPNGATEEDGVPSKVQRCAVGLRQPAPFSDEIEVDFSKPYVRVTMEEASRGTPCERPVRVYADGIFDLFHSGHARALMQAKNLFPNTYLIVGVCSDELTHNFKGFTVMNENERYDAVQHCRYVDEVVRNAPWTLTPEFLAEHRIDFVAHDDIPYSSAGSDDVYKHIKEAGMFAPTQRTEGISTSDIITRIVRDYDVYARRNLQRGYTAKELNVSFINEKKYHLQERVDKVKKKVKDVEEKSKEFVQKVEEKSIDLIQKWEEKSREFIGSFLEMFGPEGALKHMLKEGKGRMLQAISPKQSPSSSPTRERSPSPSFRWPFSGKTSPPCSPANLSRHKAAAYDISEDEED
UniProt P50395: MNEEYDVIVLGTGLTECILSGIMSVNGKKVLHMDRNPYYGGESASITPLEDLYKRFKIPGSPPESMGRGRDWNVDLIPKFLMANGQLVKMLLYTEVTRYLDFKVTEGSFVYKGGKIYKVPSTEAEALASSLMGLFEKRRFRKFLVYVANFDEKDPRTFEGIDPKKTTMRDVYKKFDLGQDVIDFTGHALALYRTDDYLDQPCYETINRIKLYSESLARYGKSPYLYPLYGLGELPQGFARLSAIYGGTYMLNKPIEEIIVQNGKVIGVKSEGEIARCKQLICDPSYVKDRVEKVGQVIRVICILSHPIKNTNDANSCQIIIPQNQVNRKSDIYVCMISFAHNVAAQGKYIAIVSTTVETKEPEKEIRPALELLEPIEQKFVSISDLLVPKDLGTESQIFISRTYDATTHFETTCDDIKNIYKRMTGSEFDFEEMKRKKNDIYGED
UniProt P46379: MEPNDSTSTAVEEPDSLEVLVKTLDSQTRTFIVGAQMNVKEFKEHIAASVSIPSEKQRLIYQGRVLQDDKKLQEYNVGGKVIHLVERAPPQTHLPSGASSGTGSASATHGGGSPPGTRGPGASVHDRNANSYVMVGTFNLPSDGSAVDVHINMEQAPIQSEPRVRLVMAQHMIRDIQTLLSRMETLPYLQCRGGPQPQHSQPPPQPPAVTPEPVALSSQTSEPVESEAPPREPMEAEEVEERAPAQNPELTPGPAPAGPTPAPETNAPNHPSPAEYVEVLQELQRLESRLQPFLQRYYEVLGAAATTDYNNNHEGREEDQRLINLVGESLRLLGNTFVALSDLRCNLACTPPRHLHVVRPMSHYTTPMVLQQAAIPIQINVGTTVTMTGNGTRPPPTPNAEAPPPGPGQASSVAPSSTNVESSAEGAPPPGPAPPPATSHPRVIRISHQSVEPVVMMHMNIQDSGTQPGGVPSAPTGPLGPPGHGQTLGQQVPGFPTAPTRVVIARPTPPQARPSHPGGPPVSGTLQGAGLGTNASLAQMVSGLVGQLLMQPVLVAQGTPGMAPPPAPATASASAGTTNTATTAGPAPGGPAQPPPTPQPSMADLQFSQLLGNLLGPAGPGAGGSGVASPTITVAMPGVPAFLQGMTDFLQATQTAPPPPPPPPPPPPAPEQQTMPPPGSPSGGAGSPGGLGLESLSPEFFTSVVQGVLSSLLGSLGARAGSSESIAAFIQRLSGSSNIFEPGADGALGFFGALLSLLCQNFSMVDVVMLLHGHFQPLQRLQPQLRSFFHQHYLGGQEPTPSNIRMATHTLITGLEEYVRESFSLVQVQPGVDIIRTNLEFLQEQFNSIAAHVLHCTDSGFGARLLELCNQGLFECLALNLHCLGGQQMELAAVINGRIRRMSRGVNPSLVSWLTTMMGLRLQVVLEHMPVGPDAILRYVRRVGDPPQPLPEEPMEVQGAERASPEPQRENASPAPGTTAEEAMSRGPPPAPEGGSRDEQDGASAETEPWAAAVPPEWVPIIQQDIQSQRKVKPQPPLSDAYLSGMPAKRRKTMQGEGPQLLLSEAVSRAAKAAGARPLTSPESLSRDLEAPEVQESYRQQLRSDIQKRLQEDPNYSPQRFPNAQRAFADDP
UniProt P49006: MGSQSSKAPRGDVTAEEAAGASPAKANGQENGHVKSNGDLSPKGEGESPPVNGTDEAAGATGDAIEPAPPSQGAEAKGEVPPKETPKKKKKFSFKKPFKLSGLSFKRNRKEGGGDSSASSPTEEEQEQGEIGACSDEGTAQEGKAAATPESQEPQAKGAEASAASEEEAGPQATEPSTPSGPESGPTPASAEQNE
UniProt P53801: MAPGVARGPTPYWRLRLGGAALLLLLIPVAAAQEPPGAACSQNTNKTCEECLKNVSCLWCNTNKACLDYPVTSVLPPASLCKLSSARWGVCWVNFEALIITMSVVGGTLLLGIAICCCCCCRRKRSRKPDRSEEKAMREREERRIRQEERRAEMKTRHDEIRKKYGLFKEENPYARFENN
UniProt P49815: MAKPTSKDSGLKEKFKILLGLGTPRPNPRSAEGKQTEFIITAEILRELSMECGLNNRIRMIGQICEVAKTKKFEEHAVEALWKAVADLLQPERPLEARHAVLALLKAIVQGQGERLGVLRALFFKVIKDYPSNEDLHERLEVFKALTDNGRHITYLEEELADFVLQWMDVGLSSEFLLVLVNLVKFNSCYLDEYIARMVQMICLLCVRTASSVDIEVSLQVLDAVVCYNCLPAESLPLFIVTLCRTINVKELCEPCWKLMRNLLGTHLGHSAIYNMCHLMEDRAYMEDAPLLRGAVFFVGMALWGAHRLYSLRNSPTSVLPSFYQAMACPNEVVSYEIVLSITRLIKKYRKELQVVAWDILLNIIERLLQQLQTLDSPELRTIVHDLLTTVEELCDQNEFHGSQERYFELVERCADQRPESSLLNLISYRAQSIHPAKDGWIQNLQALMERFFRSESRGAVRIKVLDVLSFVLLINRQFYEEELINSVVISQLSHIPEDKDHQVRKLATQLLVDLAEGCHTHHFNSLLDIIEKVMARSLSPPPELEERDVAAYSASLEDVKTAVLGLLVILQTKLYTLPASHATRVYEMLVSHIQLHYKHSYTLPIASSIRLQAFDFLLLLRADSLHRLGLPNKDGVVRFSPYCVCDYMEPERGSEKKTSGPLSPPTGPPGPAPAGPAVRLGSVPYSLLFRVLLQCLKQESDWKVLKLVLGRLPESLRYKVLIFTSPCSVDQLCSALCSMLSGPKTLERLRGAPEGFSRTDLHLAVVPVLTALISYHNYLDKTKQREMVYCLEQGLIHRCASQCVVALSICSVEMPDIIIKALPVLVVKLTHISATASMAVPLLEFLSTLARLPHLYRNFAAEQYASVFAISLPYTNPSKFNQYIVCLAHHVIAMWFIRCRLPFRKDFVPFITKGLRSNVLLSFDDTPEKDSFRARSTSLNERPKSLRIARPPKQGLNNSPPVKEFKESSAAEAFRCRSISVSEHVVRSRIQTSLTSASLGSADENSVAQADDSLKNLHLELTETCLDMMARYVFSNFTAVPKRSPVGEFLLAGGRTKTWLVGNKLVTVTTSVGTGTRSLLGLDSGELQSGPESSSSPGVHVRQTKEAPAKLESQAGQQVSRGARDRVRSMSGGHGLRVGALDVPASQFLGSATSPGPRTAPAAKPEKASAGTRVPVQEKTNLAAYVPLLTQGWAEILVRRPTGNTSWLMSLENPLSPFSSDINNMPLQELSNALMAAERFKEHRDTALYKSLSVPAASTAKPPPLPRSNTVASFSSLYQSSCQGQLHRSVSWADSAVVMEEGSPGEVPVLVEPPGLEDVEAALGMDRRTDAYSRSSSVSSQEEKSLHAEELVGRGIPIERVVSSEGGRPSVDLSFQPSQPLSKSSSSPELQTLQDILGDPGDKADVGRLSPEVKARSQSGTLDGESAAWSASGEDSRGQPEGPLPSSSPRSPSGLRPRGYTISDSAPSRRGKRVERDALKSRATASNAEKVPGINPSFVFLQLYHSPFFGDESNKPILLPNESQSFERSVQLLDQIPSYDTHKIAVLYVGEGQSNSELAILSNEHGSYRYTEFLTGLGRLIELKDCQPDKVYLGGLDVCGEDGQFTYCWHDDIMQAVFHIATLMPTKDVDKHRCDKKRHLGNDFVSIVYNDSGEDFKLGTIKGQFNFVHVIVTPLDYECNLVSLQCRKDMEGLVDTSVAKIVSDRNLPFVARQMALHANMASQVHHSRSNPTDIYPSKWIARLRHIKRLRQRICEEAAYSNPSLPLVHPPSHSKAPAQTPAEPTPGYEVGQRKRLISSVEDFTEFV

Target | log2 fold change
ZFP36L2 (peptide sequence: HSASNLHALAHPAPSPGSCSPK, peptide start residue: 56) (UniProt P47974) | 0.371
KIF11 (peptide sequence: NGVYISEENFR, peptide start residue: 396) (UniProt P52732) | -0.102
QARS (peptide sequence: LFTLTALR, peptide start residue: 516) (UniProt P47897) | -0.428
RAD23A (peptide sequence: ERVVAALR, peptide start residue: 178) (UniProt P54725) | -0.188
SUB1 (peptide sequence: QVAPEKPVK, peptide start residue: 30) (UniProt P53999) | 0.173
HLCS (peptide sequence: GSASGSEPAGDSDR, peptide start residue: 78) (UniProt P50747) | 0.358
CRIP2 (peptide sequence: GVNTGAVGSYIYDRDPEGK, peptide start residue: 187) (UniProt P52943) | -0.261
CLCN7 (peptide sequence: TARPGGGTPLLNGAGPGAAR, peptide start residue: 27) (UniProt P51798) | 0.069
PRIM1 (peptide sequence: GVHCWVCDESVR, peptide start residue: 164) (UniProt P49642) | -0.199
IDH3A (peptide sequence: IAEFAFEYAR, peptide start residue: 179) (UniProt P50213) | -0.143
IDH3G (peptide sequence: LHSYATSIR, peptide start residue: 341) (UniProt P51553) | 0.236
GCLM (peptide sequence: KKCPSTHSEELHDCIQK, peptide start residue: 33) (UniProt P48507) | -0.166
STAR (peptide sequence: LTWLLSIDLK, peptide start residue: 239) (UniProt P49675) | 0.494
PCYT1A (peptide sequence: TEGISTSDIITR, peptide start residue: 197) (UniProt P49585) | -0.0825
UniProt P48047 (peptide sequence: LVRPPVQVYGIEGR, peptide start residue: 27) | 0.344
HK2 (peptide sequence: KLPLGFTFSFPCHQTK, peptide start residue: 147) (UniProt P52789) | 0.479
TPMT (peptide sequence: GALVAINPGDRK, peptide start residue: 153) (UniProt P51580) | 0.425
ARHGDIA (peptide sequence: KYKEALLGR, peptide start residue: 50) (UniProt P52565) | 0.33
MVD (peptide sequence: QVAPESHWPELR, peptide start residue: 185) (UniProt P53602) | 0.448
RAB9A (peptide sequence: SDHLIQTDTVNLHR, peptide start residue: 179) (UniProt P51151) | -0.0528
GDI2 (peptide sequence: KNDIYGED, peptide start residue: 438) (UniProt P50395) | -0.152
UniProt P46379 (peptide sequence: MATHTLITGLEEYVR, peptide start residue: 806) | 0.229
MARCKSL1 (peptide sequence: GEVPPKETPK, peptide start residue: 78) (UniProt P49006) | 0.19
PTTG1IP (peptide sequence: YGLFKEENPYAR, peptide start residue: 165) (UniProt P53801) | -0.0775
TSC2 (peptide sequence: SNVLLSFDDTPEKDSFR, peptide start residue: 918) (UniProt P49815) | -0.321
LRBA (peptide sequence: LINDCHGSVSEASSEQK, peptide start residue: 1224) (UniProt P50851) | -0.22
CLCN3 (peptide sequence: MESEQLFHR, peptide start residue: 1) (UniProt P51790) | -0.105
JAK3 (peptide sequence: KLQFYEDR, peptide start residue: 762) (UniProt P52333) | 0.143

2 records drawn at random from the list so far, as already listed:
Target | log2 fold change
PTTG1IP (peptide sequence: YGLFKEENPYAR, peptide start residue: 165) (UniProt P53801) | -0.0775
GCLM (peptide sequence: KKCPSTHSEELHDCIQK, peptide start residue: 33) (UniProt P48507) | -0.166

Reference: the supplement of paper PMC12819154, “High-throughput peptide-centric local stability assay extends protein–ligand identification to membrane proteins, tissues and bacteria” (Nature Structural & Molecular Biology, 2025)
